Source: patent US20250154171A1, “RAS INHIBITORS” (Revolution Medicines, Inc., priority 2023, published 2025)
Some entries share one result that the patent states for a list of compounds.

Protein sequences, listed by entry. Tags and fused reporters are not part of them. Lines headed by an entry give the natural chain unless they say otherwise; changes in a name come on top. Residues count along the entry.
UniProt P01116, 1-188 isoform P01116-2 G12V: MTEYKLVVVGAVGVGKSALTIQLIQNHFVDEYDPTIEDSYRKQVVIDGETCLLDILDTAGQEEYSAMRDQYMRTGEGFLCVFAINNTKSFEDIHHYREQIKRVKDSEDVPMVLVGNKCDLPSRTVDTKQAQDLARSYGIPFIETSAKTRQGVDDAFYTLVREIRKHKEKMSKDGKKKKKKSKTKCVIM
UniProt P01116, 1-188 isoform P01116-2 G12A: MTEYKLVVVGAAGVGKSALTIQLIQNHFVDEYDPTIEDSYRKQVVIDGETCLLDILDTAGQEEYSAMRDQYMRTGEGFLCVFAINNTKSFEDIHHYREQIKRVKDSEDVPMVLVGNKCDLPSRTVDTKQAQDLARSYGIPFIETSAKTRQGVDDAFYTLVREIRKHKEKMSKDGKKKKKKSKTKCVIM
UniProt P62937, whole entry: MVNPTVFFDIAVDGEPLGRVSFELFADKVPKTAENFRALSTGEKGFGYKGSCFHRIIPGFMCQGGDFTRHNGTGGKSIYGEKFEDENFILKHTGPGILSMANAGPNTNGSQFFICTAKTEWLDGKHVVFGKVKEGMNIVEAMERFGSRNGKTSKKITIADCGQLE

Assays:
K-RasG12V = K-RasG12V (Homo sapiens, UniProt P01116+P62937, G12V); assay: Disruption of BRAF RBD interaction with K-Ras (TR-FRET / MOA assay), K-RasG12V; assay type: biochemical; settings: TR-FRET with cyclophilin A and GST-BRAF RBD, read-out: IC50 with respect to K-RasG12V (disruption of BRAF RBD interaction)
Capan-1 (K-Ras G12V) = assay: CellTiter-Glo cell viability assay, Capan-1; assay type: cell-based, human; settings: 5-day treatment, Capan-1 and/or NCI-H2009 versus A375
K-RasG12A = K-RasG12A (Homo sapiens, UniProt P01116+P62937, G12A); assay: Disruption of BRAF RBD interaction with K-Ras (TR-FRET / MOA assay), K-RasG12A; assay type: biochemical; settings: TR-FRET with cyclophilin A and GST-BRAF RBD, read-out: IC50 with respect to K-RasG12A (disruption of BRAF RBD interaction)

SMILES | IC50 (K-RasG12V) [nM] | decrease in cell viability with respect to Capan-1 and/or NCI-H2009 versus wild-type KRAS (A375) (Capan-1 (K-Ras G12V)) | IC50 (K-RasG12A) [nM]
CO[C@@H](C)c1ncccc1-c1c2c3cc(ccc3n1C1CN(C3CC3)C1)-c1csc(n1)[C@@H](N1CC3(CC[C@H](F)C3)C1)[C@H](NC(=O)[C@@H]1[C@@H](C)[C@H]1c1ccncn1)C(=O)N1CCC[C@H](N1)C(=O)OCC(C)(C)C2 (atropisomer, axis not shown) [Example A896] | < 1000 | greater decrease in cell viability | < 1000
CO[C@@H](C)c1ncc(N2CCN(C3CC3)CC2)cc1-c1c2c3cc(ccc3n1C1CN(C3CC3)C1)-c1coc(n1)[C@@H](N1CC3(CCN3C)C1)[C@H](NC(=O)[C@@H]1[C@@H](C)[C@H]1c1ccncn1)C(=O)N1CCC[C@H](N1)C(=O)OCC(C)(C)C2 (atropisomer, axis not shown) [Example A898] | < 1000 | greater decrease in cell viability | < 1000
CO[C@@H](C)c1ncc(N2CCN(C3CC3)CC2)cc1-c1c2c3cc(ccc3n1C1CN(C3CC3)C1)-c1coc(n1)[C@@H](N1CC3(CCCN3C)C1)[C@H](NC(=O)[C@H]1[C@H](C)[C@@H]1C)C(=O)N1CCC[C@H](N1)C(=O)OCC(C)(C)C2 (atropisomer, axis not shown) [Example A899] | < 1000 | greater decrease in cell viability | < 1000
CO[C@@H](C)c1ncccc1-c1c2c3cc(ccc3n1C1CN(C3CC3)C1)-c1coc(n1)[C@@H](N1CC3(CCCN3C)C1)[C@H](NC(=O)[C@@H]1[C@@H](C)[C@H]1c1cocn1)C(=O)N1CCC[C@H](N1)C(=O)OCC(C)(C)C2 (atropisomer, axis not shown) [Example A902] | < 1000 | greater decrease in cell viability | < 1000
CO[C@@H](C)c1ncccc1-c1c2c3cc(ccc3n1[C@@H]1C[C@@H]3CN(C)C[C@@H]3C1)-c1csc(n1)[C@@H](N1CC3(CCN3C)C1)[C@H](NC(=O)[C@H]1[C@H](C)[C@@H]1C)C(=O)N1CCC[C@H](N1)C(=O)OCC(C)(C)C2 (atropisomer, axis not shown) [Example A903] | < 1000 | greater decrease in cell viability | < 1000
CO[C@@H](C)c1ncccc1-c1c2c3cc(ccc3n1CCO[C@H]1CCOC(C)(C)C1)-c1csc(n1)[C@@H](N1CC3(CCN3C)C1)[C@H](NC(=O)[C@H]1[C@H](C)[C@@H]1C)C(=O)N1CCC[C@H](N1)C(=O)OCC(C)(C)C2 (atropisomer, axis not shown) [Example A904] | < 1000 | greater decrease in cell viability | < 1000
CO[C@@H](C)c1ncccc1-c1c2c3cc(ccc3n1CCOC(C)C)-c1csc(n1)[C@@H](N1CC3(CCN3C)C1)[C@H](NC(=O)[C@H]1[C@H](C)[C@@H]1C)C(=O)N1CCC[C@H](N1)C(=O)OCC(C)(C)C2 (atropisomer, axis not shown) [Example A905] | < 1000 | greater decrease in cell viability | < 1000
CO[C@@H](C)c1ncccc1-c1c2c3cc(ccc3n1C1CC3(COC3)C1)-c1csc(n1)[C@@H](N1CC3(CCN3C)C1)[C@H](NC(=O)[C@H]1[C@H](C)[C@@H]1C)C(=O)N1CCC[C@H](N1)C(=O)OCC(C)(C)C2 (atropisomer, axis not shown) [Example A906] | < 1000 | greater decrease in cell viability | < 1000
CO[C@@H](C)c1ncccc1-c1c2c3cc(ccc3n1CCOC1CCOCC1)-c1csc(n1)[C@@H](N1CC3(CCCN3C)C1)[C@H](NC(=O)[C@H]1[C@H](C)[C@@H]1C)C(=O)N1CCC[C@H](N1)C(=O)OCC(C)(C)C2 (atropisomer, axis not shown) [Example A915] | < 1000 | greater decrease in cell viability | < 1000
CO[C@@H](C)c1ncccc1-c1c2c3cc(ccc3n1CCOC1CCOCC1)-c1csc(n1)[C@@H](N1CC3(CCCN3C)C1)[C@H](NC(=O)[C@@H]1[C@@H](C)[C@H]1c1ccncn1)C(=O)N1CCC[C@H](N1)C(=O)OCC(C)(C)C2 (atropisomer, axis not shown) [Example A916] | < 1000 | greater decrease in cell viability | < 1000
CO[C@@H](C)c1ncccc1-c1c2c3cc(ccc3n1C1CN(C3CC3)C1)-c1csc(n1)[C@@H](N1CC3(CC[C@@H](F)C3)C1)[C@H](NC(=O)[C@H]1[C@H](C)[C@@H]1C)C(=O)N1CCC[C@H](N1)C(=O)OCC(C)(C)C2 (atropisomer, axis not shown) [Example A934] | < 1000 | greater decrease in cell viability | < 1000
CO[C@@H](C)c1ncccc1-c1c2c3cc(ccc3n1C1CN(C3CC3)C1)-c1csc(n1)[C@@H](N1CC3(CCCN3C(C)=O)C1)[C@H](NC(=O)[C@H]1[C@H](C)[C@@H]1C)C(=O)N1CCC[C@H](N1)C(=O)OCC(C)(C)C2 (atropisomer, axis not shown) [Example A936] | < 1000 | greater decrease in cell viability | < 1000
CO[C@@H](C)c1ncccc1-c1c2c3cc(ccc3n1C1CN(C3CC3)C1)-c1csc(n1)[C@@H](N1CC3(CCCN3C(C)=O)C1)[C@H](NC(=O)[C@@H]1[C@@H](C)[C@H]1c1ccncn1)C(=O)N1CCC[C@H](N1)C(=O)OCC(C)(C)C2 (atropisomer, axis not shown) [Example A937] | < 1000 | greater decrease in cell viability | < 1000
CO[C@@H](C)c1ncccc1-c1c2c3cc(ccc3n1C1CN(C3CC3)C1)-c1coc(n1)[C@@H](N1CC3(CCCN3C)C1)[C@H](NC(=O)[C@H]1C[C@@H]1C)C(=O)N1CCC[C@H](N1)C(=O)OCC(C)(C)C2 (atropisomer, axis not shown) [Example A939] | < 1000 | greater decrease in cell viability | < 1000
CO[C@@H](C)c1ncccc1-c1c2c3cc(ccc3n1C1CN(C3CC3)C1)-c1csc(n1)[C@@H](N1CC3(CCCN3C)C1)[C@H](NC(=O)[C@H]1[C@H](C)[C@@H]1C(C)C)C(=O)N1CCC[C@H](N1)C(=O)OCC(C)(C)C2 (atropisomer, axis not shown) [Example A942] | < 1000 | greater decrease in cell viability | < 1000
CCn1c(-c2cccnc2[C@H](C)OC)c2c3cc(ccc31)-c1csc(n1)[C@@H](N1CC3(CCN3C)C1)[C@H](NC(=O)[C@H]1[C@H](C)[C@@H]1C)C(=O)N1CCC[C@H](N1)C(=O)OCC(C)(C)C2 (atropisomer, axis not shown) [Example A946] | < 1000 | greater decrease in cell viability | < 1000
CO[C@@H](C)c1ncccc1-c1c2c3cc(ccc3n1CCO[C@H]1CCOC(C)(C)C1)-c1csc(n1)[C@@H](N1CC3(CCN3C)C1)[C@H](NC(=O)[C@@H]1[C@@H](C)[C@H]1c1ccncn1)C(=O)N1CCC[C@H](N1)C(=O)OCC(C)(C)C2 (atropisomer, axis not shown) [Example A947] | < 1000 | greater decrease in cell viability | < 1000
CO[C@@H](C)c1ncccc1-c1c2c3cc(ccc3n1CCOC(C)C)-c1csc(n1)[C@@H](N1CC3(CCCN3C)C1)[C@H](NC(=O)[C@H]1[C@H](C)[C@@H]1C)C(=O)N1CCC[C@H](N1)C(=O)OCC(C)(C)C2 (atropisomer, axis not shown) [Example A951] | < 1000 | greater decrease in cell viability | < 1000
CO[C@@H](C)c1ncccc1-c1c2c3cc(ccc3n1CC(F)(F)F)-c1csc(n1)[C@@H](N1CC3(CCCN3C)C1)[C@H](NC(=O)[C@H]1[C@H](C)[C@@H]1C)C(=O)N1CCC[C@H](N1)C(=O)OCC(C)(C)C2 (atropisomer, axis not shown) [Example A952] | < 1000 | greater decrease in cell viability | < 1000
CCn1c(-c2cccnc2[C@H](C)OC)c2c3cc(ccc31)-c1csc(n1)[C@@H](N1CC3(CCCN3C)C1)[C@H](NC(=O)[C@H]1[C@H](C)[C@@H]1C)C(=O)N1CCC[C@H](N1)C(=O)OCC(C)(C)C2 (atropisomer, axis not shown) [Example A953] | < 1000 | greater decrease in cell viability | < 1000
CO[C@@H](C)c1ncccc1-c1c2c3cc(ccc3n1C1CN(C3CC3)C1)-c1coc(n1)[C@@H](N1CC3(CC(F)C3)C1)[C@H](NC(=O)[C@H]1[C@H](C)[C@@H]1C)C(=O)N1CCC[C@H](N1)C(=O)OCC(C)(C)C2 (atropisomer, axis not shown) [Example A967] | < 1000 | greater decrease in cell viability | < 1000
CO[C@@H](C)c1ncccc1-c1c2c3cc(ccc3n1C1CN(C3CC3)C1)-c1csc(n1)[C@@H](N1CC3(CCCN3c3ccncn3)C1)[C@H](NC(=O)[C@H]1[C@H](C)[C@@H]1C)C(=O)N1CCC[C@H](N1)C(=O)OCC(C)(C)C2 (atropisomer, axis not shown) [Example A968] | < 1000 | greater decrease in cell viability | < 1000
